Experimental data published in patent publication US12415781B2, “Compounds with biguanidyl radical and uses thereof” (INSTITUT CURIE, priority 2018, dated 2025).
Structures can show the parent of a compound that is named as a salt.

System: copper uptake protein 1 (Ctr1)
Settings: MDA-MB-468 cells, 72 h

CN(C)C(=N)NC(=N)N [metformin, 1,1-Dimethylbiguanide hydrochloride]
expression of copper uptake protein 1 (Ctr1): reduced expression
